Laboratory results reported in patent publication US20230330080A1, “THERAPEUTIC TREATMENT USING PROTEIN KINASE C (PKC) INHIBITORS AND CYTOTOXIC AGENTS” (Cambridge Enterprise Limited, priority 2020, published 2023).
For at least one compound, name, drawing or mass did not settle the structure.

Experiments:
[1] = tested on: CLL patient cells; assay: CLL viability under increasing doses of cytotoxic agents in monoculture or co-culture with PKC-β WT or PKC-β KO stroma cells; format: cell-based, human; details: PKC-β WT co-culture vs monoculture, treatment 24 hours post-seeding
[2] = tested on: CLL patient cells co-cultured with wild-type bone marrow derived stroma cells; assay: Synergism of PKC-β inhibitors with Venetoclax in CLL/stroma co-culture (Compusyn, Bliss Independence model); format: cell-based, human; details: PKC inhibitor 1.25, 2.5, 5 μM prior to Venetoclax 5, 10, 20 nM for 24 hours
Description: Heatmaps reflect assessment values noted for respective compound combinations, with error (*) indicated below. A scale of 50 to −50, is applied to values, with 50 representing maximal synergism and −50 being maximal antagonism. Non-significant values are by default coloured as neither synergistic nor antagonistic;
Approximately 20,000 wild-type bone marrow derived stroma cells were seeded into tissue culture wells and subsequently co-cultured with approximately 200,000 CLL patient cells. 24 hours thereafter, co-cultures were treated with Enzastaurin, Sotrastaurin or Midostaurin (1.25 μM, 2.5 μM, 5 μM) prior to treatment with Venetoclax. Co-cultures were subsequently treated with Venetoclax (5 nM, 10 nM, 20 nM) for 24 hours. Cells were subsequently evaluated for viability using flow cytometric analysis. Synergism was calculated using Compusyn Software (CRUK), within the Bliss Independence model (FIG. 5).

Structure (SMILES) | protective effects of PKC-β WT cells on CLL cells under treatment [1] | combinatorial treatment effect with Venetoclax (synergism, Bliss model) [2]
Nc1nc(F)nc2c1ncn2[C@@H]1O[C@H](CO)[C@@H](O)[C@@H]1O [Fludarabine] | strong protective effects | 
CO[C@@H]1[C@H](N(C)C(=O)c2ccccc2)C[C@H]2O[C@]1(C)n1c3ccccc3c3c4c(c5c6ccccc6n2c5c31)C(=O)NC4 [Midostaurin, N-((5R,7R,8R,9S)-8-methoxy-9-methyl-16-oxo-6,7,8,9,15,16-hexahydro-5H,14H-17-oxa-4b,9a,15-triaza-5,9-methanodibenzo[b,h]cyclonona[jkl]cyclopenta[e]-as-indacen-7-yl)-N-methylbenzamide] |  | synergistic effects
CC1(C)CCC(CN2CCN(c3ccc(C(=O)NS(=O)(=O)c4ccc(NCC5CCOCC5)c([N+](=O)[O-])c4)c(Oc4cnc5[nH]ccc5c4)c3)CC2)=C(c2ccc(Cl)cc2)C1 [Venetoclax] | strong protective effects | 
